Data as given in PubChem BioAssay AID1794845 (National Center for Advancing Translational Sciences (NCATS), 2023).
Hit rate of the full screen: of about 6,900 compounds, fewer than 10 were called active. Calls follow the shape of the dose curve; as a rule, active = well fitted curve in the direction sought with a large enough effect; inconclusive = small, poorly fitted or top-dose-only effect, or another doubt; inactive = no such curve, though single readings can be large or run the other way. The list shows a part of the results.

Protein sequences, listed by entry. Tags and fused reporters are not part of them. Lines headed by an entry give the natural chain unless they say otherwise; changes in a name come on top.
UniProt C7C422: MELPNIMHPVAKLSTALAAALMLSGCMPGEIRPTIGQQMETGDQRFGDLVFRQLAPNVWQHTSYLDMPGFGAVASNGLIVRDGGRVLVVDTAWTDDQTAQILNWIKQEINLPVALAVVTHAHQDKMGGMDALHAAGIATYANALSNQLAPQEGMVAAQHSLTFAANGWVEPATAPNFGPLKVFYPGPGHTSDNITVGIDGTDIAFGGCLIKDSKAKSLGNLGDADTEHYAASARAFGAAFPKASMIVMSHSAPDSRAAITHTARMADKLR

These compounds were tested against Metallo-beta-lactamase type 2 (Klebsiella pneumoniae) (UniProt C7C422) (assay: qHTS to identify inhibitors of the New Delhi Metallo-beta-lactamase (NDM): primary screen against the NCATS Gemini Collection). Details: NDM-1 enzyme, meropenem hydrolysis, absorbance 300 nm; at 38.4 µM (top of the series) unless noted.
In short: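 Meropenem hydrolysis (50 uM final) by 2 nM NDM-1 read as 300 nm absorbance after 30 min, following >30 min compound–enzyme preincubation in HEPES pH 7.0 with 1 uM ZnSO4 and 0.01% Tween20.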
Also: % of control where 0% means no effect.

Activity % (negative = inhibition), inactive:
Cc1cc(CN2C[C@@H](CO)[C@H](C(=O)N(C)C)C2)n(C)n1 2.83%
Cc1ccsc1C(=O)N1CCCC(CN2CCCC2)CC1 (centres undefined) 0.12%
COCc1noc([C@@H]2CC(F)(F)CN2C(=O)Cc2cccc(F)c2)n1 0.871%
COc1ccc(CN2Cc3[nH]cnc3C[C@H]2c2nc(Cc3ccccc3)no2)cc1 8.11% [at 57.5 µM]
CCCN1CCCC2(CCN(C(=O)c3ccc4nc(C)sc4c3)C2)C1=O (centres undefined) 8.31%
COc1ccc(CCNC(=O)C23CCC=C2N(C2CCCC2)C(=O)CC3)cc1OC (centres undefined) -8.22%
Cc1ccncc1-c1c(C)nn2c1N(Cc1ccc(C(=O)O)cc1)CCC2 11.7% [at 57.5 µM]
OCC1(Cc2ccccc2)CCCN(Cc2cn[nH]c2-c2ccc(F)cc2)C1 (centres undefined) -1.94%
O=C(N[C@H]1CO[C@H]2[C@@H]1OC[C@@H]2Nc1nccc(-c2ccco2)n1)c1ccco1 25.5% [at 57.5 µM]
CC(C)(C)c1cc(C[C@H]2CNCC[C@H]2CC(=O)NC2CCCCC2)no1 0.167% [at 57.5 µM]
CC(=O)N1CCC(N2CC[C@H](c3nc4ccccc4s3)C2)CC1 60.4% [at 57.5 µM]
COC[C@H]1C[C@@H](NS(C)(=O)=O)[C@H](O)[C@@H]1O -0.945% [at 77.1 µM]
OCC1(CC2CC2)CCCN(Cc2ccc(C(F)(F)F)nc2)C1 (centres undefined) -1.97%
O=C(COc1ccccc1)N1CCC(OCc2ccccc2)C1 (centres undefined) -0.789%
O=C(Cc1ccc(Cl)cc1)N1CCc2c(nc3cc[nH]n3c2=O)C1 1.76%
O=C(c1ccc(-c2cccc(O)c2)nc1)N1CCCN(c2ncccn2)CC1 37.1%
CN1CCN(c2cc(=O)c3ccnc(Nc4ccc(F)c(Cl)c4)c3o2)CC1 18.7% [at 57.5 µM]
COCCNc1cc(-c2noc([C@@H]3CCCN3CC(C)C)n2)ccn1 -1.56% [at 57.5 µM]
O=C(NCc1ccc(F)cc1)N1CCC(OC2CCN(Cc3ccccc3)CC2)CC1 20.5%
COc1ccc(C2=NOC3(CCN(Cc4cccn4C)C3)C2)cc1 (centres undefined) 14.6% [at 57.5 µM]
Cc1ocnc1C(=O)N1CCC2(CCCN(CCCc3ccccc3)C2=O)C1 (centres undefined) -1.64%
O=C(N[C@H]1CO[C@H]2[C@@H]1OC[C@@H]2n1nnnc1Oc1ccc(-n2ccnc2)cc1)c1ccccc1 -0.35%
CC(C)NC(=O)c1onc(-c2ccc(Cl)cc2)c1[C@H](C)O 0.697% [at 57.5 µM]
O=C(c1ccc(CN2C(=O)NC3(CCOCC3)C2=O)cc1)N1CCc2ccccc2C1 15.1%
COC1CCOC2(CCN(C(=O)CCc3nc4ccccc4s3)CC2)C1 (centres undefined) 18.8%
O=C(Cc1ccccn1)N1CCN(C(=O)c2cccc(-c3ccccn3)c2)CC1 1.66%
Cc1ccc(Nc2ccnc(N3CCCN([S+](=O)([O-])c4ccc(C)cc4)C3)n2)cc1 2.36%
CC1=C(C(=O)OC(C)C)C(c2ccccc2Cl)CC(=O)N1Cc1c(F)cccc1F (centres undefined) -2.2%
O=C(N[C@@H]1CN(Cc2ccccc2)C[C@H]1CO)c1cccnc1 -2.83%
COCCOCc1nc(C2CCCCN2C(=O)NCc2ccc(F)cc2)no1 (centres undefined) 0.427%
COCC1(CNCc2c(C)noc2C)C[C@@H](O)[C@@H](O)C1 (some centres undefined) 17.6% [at 77.1 µM]
Cc1ccc(CN2CCCC(C(=O)N3CCN(c4ccccn4)CC3)CCNC(=O)CC2)s1 (centres undefined) 3.61%
OCC1(CCCc2ccccc2)CCN(Cc2cccc3c2OCO3)CC1 9.09%
Cn1ncc(N2CCC(CNC(=O)c3cccc4ccnn34)C2)cc1=O (centres undefined) 6.77%
O=C(O)C[C@@H]1CCN(S(=O)(=O)c2ccccc2)C[C@@H]1CCN(CCN1CCOCC1)c1ccccc1 -9.15%
CC(C)n1ccnc1CN1CCC2(CCCO2)CCC1=O (centres undefined) -4.83%
CCn1cc(CN2C[C@@H]3C(=O)N(CCCN4CCCC4=O)C(=O)[C@@H]3C2)cn1 -1.86%
Cc1cccc(C(=O)N2CCC(c3nc(-c4cccn4C)no3)C2)c1 (centres undefined) 3.93%
O=C(O)c1ccc(C2CCCN(C(=O)c3cccc(N4CCOCC4)c3)C2)cc1 (centres undefined) 4.4%
COCCNC(=O)c1ccc2oc(-c3ccncc3Cl)nc2c1 38.1% [at 57.5 µM]
O=C(O)CCC(=O)N1Cc2[nH]cnc2C[C@H]1c1nc(-c2ccc(OC(F)(F)F)cc2)no1 -0.651%
CCc1cc(=O)[nH]c(N2CCOCC2)n1 -0.476%
COc1ccc(C(=O)N2CCCC2)c(OC2CCN(C(=O)C3C=CCN3)CC2)c1 (centres undefined) 0.195%
c1ccc(C2=NOC3(CCCN(CC4CCCC4)C3)C2)cc1 (centres undefined) -1.66% [at 57.5 µM]
COCCNC(=O)CN1C(=O)NC(c2cccs2)C2=C1COC2=O (centres undefined) 0.454%
CC(C)c1cc(C2CCN(Cc3cn[nH]c3-c3ccccc3)CC2)[nH]n1 -1.79%
CC1CCCN(C(=O)CN2CCCc3nc(-c4ccccc4)ncc3C2=O)C1 (centres undefined) 12.2%
COc1cncc(NC(=O)C2=NO[C@@H]3CN(Cc4ccccc4)C[C@H]23)c1 13.6% [at 57.5 µM]
CNCc1cn(C2CCN(Cc3c(OC)ccc(F)c3F)CC2)nn1 -5.93%
O=c1cc(-c2cnccn2)oc2c(Nc3cccc(OC(F)(F)F)c3)nccc12 5.49% [at 57.5 µM]
C=CCC1(C(=O)O)CCCN(C(=O)Cc2c[nH]c(=O)n(C)c2=O)C1 (centres undefined) -9.59%
CNC(=O)[C@@H]1CN(C(=O)c2ccoc2C)C[C@H]1c1nc(C)no1 6.64%
CS(=O)(=O)N1CCC2(CC1)CN(C(=O)c1ccc(Cl)cc1)CCO2 17.5%
CCc1ncc2c(N3CC4CCC(C3)N4CC(F)(F)F)nc3ccccc3n12 6.17%
CCc1nc(-c2ccc(OC3CCN(C(=O)Cc4c[nH]c5ccccc45)C3)cc2)no1 (centres undefined) 12.3%
CN1c2cc(C(=O)N3CCN(c4ccccn4)CC3)ccc2C(=O)N2CCCCC21 (centres undefined) 0.413%
COCc1ccc2c(c1)c(OC(C)(C)C(=O)N1CCN(C)CC1)nn2Cc1ccccc1 -0.183% [at 57.5 µM]
CC(=O)Nc1ccc(S(=O)(=O)N2C[C@@H]3C[C@H](C2)c2c(-c4ccc(OC(F)(F)F)cc4)ccc(=O)n2C3)cc1 6.11%
COc1cccc(C(=O)N(C)Cc2ccccc2C(F)(F)F)c1 -4.85% [at 57.5 µM]
CC(C)C(Oc1ccccc1)C(=O)N1CCc2c(ncnc2N(C)C)C1 (centres undefined) 21.6%
O=Cc1ccc(N2CCN([S+](=O)([O-])C3CC3)CC2=O)cc1 5.58%
CN1CCC[C@H]1c1nc(-c2ccc(F)cn2)no1 10.1% [at 77.1 µM]
O=c1[nH]c(-c2ccc(F)cc2)nc2c1CCN(S(=O)(=O)c1cccs1)C2 -0.234%
COc1ccccc1NC(=O)Nc1ccc2n(c1=O)C[C@H]1C[C@@H]2CN(C(=O)Cc2cccs2)C1 -1.46%
Cn1c(C(=O)N2CCN(c3ccccn3)CC2)nc2nc(-c3ccccc3)c(Cl)cc21 10.1% [at 57.5 µM]
COCC(=O)N1CC(C(=O)NCc2ccncc2)C2(CCOCC2)C1 (centres undefined) -9.81%
COc1ccc(-c2ccc3nnc(CNC(=O)c4ccoc4)n3n2)cc1 8.36%
CCCC(=O)N1CCC(N2C(=O)N(Cc3cccnc3)CC23CCOC3)CC1 (centres undefined) 3.93%
CC(C)Cc1nc(CN2CCn3nc(C(O)c4ccnn4C)cc3C2)no1 (centres undefined) -2.55%
CC(Oc1ccc2ccccc2c1)C(=O)N(C)Cc1ccc2nsnc2c1 (centres undefined) 23.8%
O=C(c1ccsc1)N1CCC2(CCCN(CC3CCC3)C2=O)C1 (centres undefined) -1.29%
O=C1CCCCN1CCNc1ccc(-c2nc(-c3ccccc3F)no2)cn1 12.3%
O=C(NC1CCN(c2cc(-c3ccc(F)cc3)[nH]n2)C1)c1cc2ccccc2[nH]1 (centres undefined) 8.83%
Cc1cc(C(=O)NC2CCCC2)c2c(C3CCNC3)noc2n1 (centres undefined) 1.69%
FC(F)(F)c1ccc(N2C3CCC2CN(Cc2ccc(-c4ccccc4)cc2)C3)cc1 1.69%
COCCc1noc(C2Cc3ccccc3N2C(=O)Cc2ccc(OC)c(OC)c2)n1 (centres undefined) 4.38%
COc1ccc(N2CCN(C(=O)c3cc(NC(C)=O)cc4nc(C)ccc34)CC2)cc1 4.08%
CC(=O)N[C@H]1CN(S(=O)(=O)c2ccc(C)c(F)c2)C[C@@H]1C(C)C 18.9%
COc1ccc(C2CCC(=O)N2Cc2ccc(F)cc2)cc1 (centres undefined) -2.11%
O=C(Cn1cccc1-c1nc(-c2ccccc2)no1)N1CCN(c2ccccc2)CC1 -0.659%
CC(C)C(=O)NCC(=O)N1CCC2(CC1)Nc1ccccc1NC2=O 8.84%
Cc1cc(C(=O)N2CCn3nc(C(C)O)cc3C2)c2ccc(F)cc2n1 (centres undefined) -3.09%
CCN1CCN(C(=O)c2cn3cc(-c4cccnc4)sc3n2)CC1 15.3% [at 57.5 µM]
Cn1cnc2ccc(-c3ccncc3)nc2c1=O 106% [at 77.1 µM]

In the list so far, 3 have a furan ring, fused or not:
Activity % (negative = inhibition), inactive:
O=C(N[C@H]1CO[C@H]2[C@@H]1OC[C@@H]2Nc1nccc(-c2ccco2)n1)c1ccco1 25.5% [at 57.5 µM]
CNC(=O)[C@@H]1CN(C(=O)c2ccoc2C)C[C@H]1c1nc(C)no1 6.64%
COc1ccc(-c2ccc3nnc(CNC(=O)c4ccoc4)n3n2)cc1 8.36%
